Protein sequences, listed by entry. Tags and fused reporters are not part of them. Lines headed by an entry give the natural chain unless they say otherwise; changes in a name come on top.
UniProt Q9BW85: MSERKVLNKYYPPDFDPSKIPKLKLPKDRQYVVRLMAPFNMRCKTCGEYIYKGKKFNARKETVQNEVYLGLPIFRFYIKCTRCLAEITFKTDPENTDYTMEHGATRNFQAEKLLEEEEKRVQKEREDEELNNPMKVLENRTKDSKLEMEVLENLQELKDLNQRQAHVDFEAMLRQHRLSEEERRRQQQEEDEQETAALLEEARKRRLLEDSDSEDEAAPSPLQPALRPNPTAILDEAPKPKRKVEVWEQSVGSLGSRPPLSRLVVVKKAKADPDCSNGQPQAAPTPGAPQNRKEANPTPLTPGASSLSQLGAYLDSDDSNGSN
UniProt O76080: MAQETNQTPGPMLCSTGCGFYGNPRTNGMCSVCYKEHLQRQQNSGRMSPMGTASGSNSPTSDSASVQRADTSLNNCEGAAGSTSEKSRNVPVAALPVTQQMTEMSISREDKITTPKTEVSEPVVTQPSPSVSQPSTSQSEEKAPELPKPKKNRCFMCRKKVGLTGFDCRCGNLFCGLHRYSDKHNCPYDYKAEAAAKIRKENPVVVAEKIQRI
UniProt P17028: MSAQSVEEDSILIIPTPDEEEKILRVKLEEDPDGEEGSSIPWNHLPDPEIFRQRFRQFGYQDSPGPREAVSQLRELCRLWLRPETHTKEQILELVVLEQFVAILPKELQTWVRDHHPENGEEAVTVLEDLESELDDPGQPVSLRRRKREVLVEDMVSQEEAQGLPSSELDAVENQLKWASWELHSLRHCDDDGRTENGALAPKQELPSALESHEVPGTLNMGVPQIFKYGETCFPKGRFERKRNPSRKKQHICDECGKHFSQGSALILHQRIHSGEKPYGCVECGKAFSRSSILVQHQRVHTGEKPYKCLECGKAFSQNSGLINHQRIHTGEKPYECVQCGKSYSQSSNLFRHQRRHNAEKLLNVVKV
UniProt O95159: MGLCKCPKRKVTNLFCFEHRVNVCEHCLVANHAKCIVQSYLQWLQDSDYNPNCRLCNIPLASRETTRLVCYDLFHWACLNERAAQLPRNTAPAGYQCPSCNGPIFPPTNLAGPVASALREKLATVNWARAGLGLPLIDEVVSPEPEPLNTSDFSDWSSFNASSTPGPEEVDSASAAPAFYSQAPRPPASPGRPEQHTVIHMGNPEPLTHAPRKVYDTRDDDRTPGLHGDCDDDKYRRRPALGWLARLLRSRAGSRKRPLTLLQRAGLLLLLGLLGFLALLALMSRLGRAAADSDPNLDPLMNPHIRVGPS
UniProt P54577: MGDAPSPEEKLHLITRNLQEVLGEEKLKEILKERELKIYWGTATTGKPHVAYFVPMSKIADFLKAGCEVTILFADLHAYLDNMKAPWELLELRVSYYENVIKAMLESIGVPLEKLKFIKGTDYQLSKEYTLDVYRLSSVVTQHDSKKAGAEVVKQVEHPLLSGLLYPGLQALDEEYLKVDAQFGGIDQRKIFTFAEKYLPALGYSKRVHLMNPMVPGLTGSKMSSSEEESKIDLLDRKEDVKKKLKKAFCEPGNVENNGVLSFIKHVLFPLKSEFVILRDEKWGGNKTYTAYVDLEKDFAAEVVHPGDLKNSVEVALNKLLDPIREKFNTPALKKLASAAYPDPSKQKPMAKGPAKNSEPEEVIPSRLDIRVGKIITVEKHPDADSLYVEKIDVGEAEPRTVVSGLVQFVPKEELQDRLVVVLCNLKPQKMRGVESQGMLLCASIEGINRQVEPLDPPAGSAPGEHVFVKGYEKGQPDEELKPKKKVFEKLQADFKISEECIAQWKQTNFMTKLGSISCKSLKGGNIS
UniProt P25490, whole entry, looked up: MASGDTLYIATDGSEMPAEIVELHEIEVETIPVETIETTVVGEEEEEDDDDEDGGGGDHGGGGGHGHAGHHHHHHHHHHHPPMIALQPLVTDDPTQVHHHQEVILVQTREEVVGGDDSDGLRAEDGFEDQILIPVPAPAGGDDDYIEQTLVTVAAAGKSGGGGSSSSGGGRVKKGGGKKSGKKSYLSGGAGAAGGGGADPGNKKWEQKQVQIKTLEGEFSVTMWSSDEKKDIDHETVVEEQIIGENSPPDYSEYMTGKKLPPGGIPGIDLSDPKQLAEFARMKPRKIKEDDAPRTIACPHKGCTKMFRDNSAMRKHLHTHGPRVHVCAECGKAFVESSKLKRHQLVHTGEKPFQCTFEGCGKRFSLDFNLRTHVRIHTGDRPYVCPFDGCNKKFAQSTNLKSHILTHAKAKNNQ
UniProt Q9NQH7: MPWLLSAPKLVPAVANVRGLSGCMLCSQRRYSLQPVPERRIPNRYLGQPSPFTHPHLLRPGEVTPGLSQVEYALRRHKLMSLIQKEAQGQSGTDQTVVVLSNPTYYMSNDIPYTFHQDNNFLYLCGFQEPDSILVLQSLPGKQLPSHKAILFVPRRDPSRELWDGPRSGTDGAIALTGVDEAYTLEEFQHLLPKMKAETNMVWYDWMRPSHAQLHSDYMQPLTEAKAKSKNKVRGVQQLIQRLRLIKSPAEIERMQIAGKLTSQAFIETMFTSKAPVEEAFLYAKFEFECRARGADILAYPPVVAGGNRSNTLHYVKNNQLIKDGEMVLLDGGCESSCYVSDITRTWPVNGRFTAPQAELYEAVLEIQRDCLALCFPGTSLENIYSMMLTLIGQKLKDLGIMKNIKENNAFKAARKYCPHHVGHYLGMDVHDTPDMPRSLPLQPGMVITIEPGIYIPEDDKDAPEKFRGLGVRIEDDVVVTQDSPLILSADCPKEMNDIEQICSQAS
UniProt Q8IUH5: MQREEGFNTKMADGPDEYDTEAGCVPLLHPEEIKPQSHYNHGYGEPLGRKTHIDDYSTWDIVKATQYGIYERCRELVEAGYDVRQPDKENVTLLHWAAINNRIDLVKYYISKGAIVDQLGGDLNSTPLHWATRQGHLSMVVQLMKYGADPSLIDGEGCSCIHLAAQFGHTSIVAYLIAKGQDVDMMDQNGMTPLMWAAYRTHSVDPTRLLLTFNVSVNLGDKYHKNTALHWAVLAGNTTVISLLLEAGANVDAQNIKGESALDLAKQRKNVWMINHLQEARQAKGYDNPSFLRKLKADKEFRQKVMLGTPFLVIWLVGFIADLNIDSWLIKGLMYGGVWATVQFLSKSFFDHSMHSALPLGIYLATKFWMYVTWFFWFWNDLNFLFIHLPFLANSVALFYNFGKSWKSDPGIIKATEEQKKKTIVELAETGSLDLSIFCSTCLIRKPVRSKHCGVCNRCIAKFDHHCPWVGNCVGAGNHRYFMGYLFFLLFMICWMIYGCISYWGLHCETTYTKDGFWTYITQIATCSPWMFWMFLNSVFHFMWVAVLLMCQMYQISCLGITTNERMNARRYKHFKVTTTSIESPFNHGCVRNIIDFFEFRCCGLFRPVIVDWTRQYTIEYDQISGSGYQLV
UniProt P31946: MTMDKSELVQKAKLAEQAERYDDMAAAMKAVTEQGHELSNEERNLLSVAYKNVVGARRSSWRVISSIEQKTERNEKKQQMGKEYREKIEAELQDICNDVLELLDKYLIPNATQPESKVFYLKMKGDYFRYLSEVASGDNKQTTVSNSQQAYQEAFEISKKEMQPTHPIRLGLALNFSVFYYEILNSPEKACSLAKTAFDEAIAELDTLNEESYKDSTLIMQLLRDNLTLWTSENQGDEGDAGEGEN
UniProt O14980, whole entry, looked up: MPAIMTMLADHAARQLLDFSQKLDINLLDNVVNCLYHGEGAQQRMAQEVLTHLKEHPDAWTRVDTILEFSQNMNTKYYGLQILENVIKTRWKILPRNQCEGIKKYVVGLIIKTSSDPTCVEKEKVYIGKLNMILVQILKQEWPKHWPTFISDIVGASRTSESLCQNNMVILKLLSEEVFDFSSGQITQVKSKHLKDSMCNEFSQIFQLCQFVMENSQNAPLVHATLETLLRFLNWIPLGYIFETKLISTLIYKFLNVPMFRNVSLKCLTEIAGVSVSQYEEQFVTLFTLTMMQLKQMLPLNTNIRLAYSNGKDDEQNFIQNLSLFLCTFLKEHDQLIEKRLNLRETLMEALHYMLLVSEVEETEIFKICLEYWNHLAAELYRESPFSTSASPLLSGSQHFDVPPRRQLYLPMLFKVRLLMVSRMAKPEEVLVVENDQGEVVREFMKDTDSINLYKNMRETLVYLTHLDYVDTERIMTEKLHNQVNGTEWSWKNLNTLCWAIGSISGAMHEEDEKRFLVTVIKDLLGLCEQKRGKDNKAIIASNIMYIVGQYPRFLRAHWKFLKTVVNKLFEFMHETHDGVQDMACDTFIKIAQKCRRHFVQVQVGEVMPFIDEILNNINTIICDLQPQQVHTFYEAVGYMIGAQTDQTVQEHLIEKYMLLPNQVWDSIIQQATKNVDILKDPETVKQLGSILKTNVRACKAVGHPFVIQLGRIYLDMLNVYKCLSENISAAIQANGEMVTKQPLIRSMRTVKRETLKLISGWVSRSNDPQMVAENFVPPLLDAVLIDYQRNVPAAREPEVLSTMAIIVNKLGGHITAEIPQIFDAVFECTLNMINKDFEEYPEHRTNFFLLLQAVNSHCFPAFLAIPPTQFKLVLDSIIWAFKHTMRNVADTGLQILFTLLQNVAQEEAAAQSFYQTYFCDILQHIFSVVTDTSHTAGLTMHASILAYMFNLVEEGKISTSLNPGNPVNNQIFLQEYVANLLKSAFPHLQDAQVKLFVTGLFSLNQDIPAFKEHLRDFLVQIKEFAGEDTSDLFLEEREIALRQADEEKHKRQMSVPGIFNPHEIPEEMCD
UniProt P67809, whole entry, looked up: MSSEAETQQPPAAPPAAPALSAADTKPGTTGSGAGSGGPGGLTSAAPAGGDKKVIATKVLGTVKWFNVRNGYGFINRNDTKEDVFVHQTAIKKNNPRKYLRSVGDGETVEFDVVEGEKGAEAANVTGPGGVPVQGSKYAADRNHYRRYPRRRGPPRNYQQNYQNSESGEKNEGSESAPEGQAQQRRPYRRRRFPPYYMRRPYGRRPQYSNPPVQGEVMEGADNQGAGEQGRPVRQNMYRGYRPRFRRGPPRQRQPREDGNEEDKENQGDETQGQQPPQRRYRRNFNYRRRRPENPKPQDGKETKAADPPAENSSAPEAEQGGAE
UniProt Q7Z7L7: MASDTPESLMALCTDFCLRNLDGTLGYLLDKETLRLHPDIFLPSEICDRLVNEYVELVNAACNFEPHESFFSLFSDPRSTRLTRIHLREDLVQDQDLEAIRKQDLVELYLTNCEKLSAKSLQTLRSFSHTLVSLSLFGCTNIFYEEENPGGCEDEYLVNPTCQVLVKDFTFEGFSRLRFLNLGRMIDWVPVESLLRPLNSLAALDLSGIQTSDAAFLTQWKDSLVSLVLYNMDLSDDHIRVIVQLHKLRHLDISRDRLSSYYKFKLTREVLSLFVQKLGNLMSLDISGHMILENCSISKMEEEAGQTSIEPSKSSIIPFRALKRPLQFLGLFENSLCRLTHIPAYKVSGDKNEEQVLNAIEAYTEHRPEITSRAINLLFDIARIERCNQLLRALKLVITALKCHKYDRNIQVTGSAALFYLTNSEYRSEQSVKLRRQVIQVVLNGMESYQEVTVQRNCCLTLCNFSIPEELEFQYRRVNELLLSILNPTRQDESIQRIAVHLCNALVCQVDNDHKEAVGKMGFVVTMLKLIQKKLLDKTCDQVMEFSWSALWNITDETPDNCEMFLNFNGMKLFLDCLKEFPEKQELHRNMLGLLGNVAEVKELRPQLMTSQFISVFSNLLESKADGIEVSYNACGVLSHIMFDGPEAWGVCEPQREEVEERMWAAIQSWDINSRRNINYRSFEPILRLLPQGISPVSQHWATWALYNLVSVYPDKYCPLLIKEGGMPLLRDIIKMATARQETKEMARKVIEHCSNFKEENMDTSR
UniProt P27348: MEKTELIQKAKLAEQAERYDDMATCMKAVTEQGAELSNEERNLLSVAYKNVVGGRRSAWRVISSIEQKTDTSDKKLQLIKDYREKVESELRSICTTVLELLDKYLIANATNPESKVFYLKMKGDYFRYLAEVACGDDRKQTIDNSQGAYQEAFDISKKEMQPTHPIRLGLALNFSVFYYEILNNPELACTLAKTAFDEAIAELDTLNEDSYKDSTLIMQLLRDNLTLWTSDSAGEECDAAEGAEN
UniProt Q86WB0: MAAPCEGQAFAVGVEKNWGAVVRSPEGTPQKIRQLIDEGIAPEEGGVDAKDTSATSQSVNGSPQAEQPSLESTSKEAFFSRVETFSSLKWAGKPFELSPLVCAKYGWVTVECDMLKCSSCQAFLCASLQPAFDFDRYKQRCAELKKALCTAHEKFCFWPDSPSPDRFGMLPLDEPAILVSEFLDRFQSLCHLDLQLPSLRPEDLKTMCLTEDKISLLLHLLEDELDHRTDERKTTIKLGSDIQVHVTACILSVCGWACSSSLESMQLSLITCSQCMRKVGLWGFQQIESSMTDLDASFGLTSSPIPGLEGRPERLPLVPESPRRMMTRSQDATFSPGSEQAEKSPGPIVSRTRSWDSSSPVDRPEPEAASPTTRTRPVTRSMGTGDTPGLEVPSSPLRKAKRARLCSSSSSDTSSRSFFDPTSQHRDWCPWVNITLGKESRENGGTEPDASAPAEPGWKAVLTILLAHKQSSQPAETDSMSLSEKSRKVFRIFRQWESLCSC

Some of the results follow.
Each target was assayed with CN1CCC(CNc2ccc3ncc(-c4cccc(OC(F)(F)F)c4)n3n2)CC1 (assay: log2 fold change, soluble protein after heating vs DMSO (PISA); higher = thermal stabilisation; K562 cells, 10 uM, 30 min; active = over 0.2 and 3.5 SD of the protein, either way, in both replicates (recomputed)).
How it was run: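 Thermal stability values are relative to control samples and come from duplicates. They are expressed as log2 fold changes. For measurement, K562 cells (2×10^6 cells/mL) received 10 μM compound for 30 min, and aliquots were heated for 3 min over 48°C-58°C, pooled, and extracted at 4°C in PBS with 0.5% NP-40. Soluble protein, the supernatant after 21,000xg for 90 min, was quantified by TMTpro 16plex LC-MS/MS with equalised channel sums.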
YJU2 (UniProt Q9BW85) was tested, and the log2 fold change was inactive: 0.043. In the case of ZFAND5 (UniProt O76080), the log2 fold change is reported as inactive: -0.068. For ZNF24 (UniProt P17028), the log2 fold change was inactive: 0.001. With ZFPL1 (UniProt O95159) the log2 fold change was inactive: -0.085. ZMYM3 (UniProt Q14202) was tested, and the log2 fold change was inactive: 0.035. XRCC5 (UniProt P13010) was tested, and the log2 fold change was inactive: -0.087. ZMAT2 (UniProt Q96NC0) was tested, and the log2 fold change was inactive: 0.008. In the case of YARS (UniProt P54577), the log2 fold change is reported as inactive: -0.148. In the case of YIPF4 (UniProt Q9BSR8), the log2 fold change is reported as inactive: 0.101. In the case of ZFP91 (UniProt Q96JP5), the log2 fold change is reported as inactive: 0.171. For XRCC6 (UniProt P12956), the log2 fold change was inactive: -0.172. For YY1 (UniProt P25490), the log2 fold change was inactive: -0.21. XPNPEP3 (UniProt Q9NQH7) was tested, and the log2 fold change was inactive: 0.012. For ZFAND2B (UniProt Q8WV99), the log2 fold change was inactive: -0.024. With ZDHHC17 (UniProt Q8IUH5) the log2 fold change was inactive: 0.065. YWHAB (UniProt P31946) was tested, and the log2 fold change was inactive: -0.042. For XPO1 (UniProt O14980), the log2 fold change was active: -0.343. ZNF143 (UniProt P52747) was tested, and the log2 fold change was inactive: -0.109. With YBX1 (UniProt P67809) the log2 fold change was inactive: 0.348. ZER1 (UniProt Q7Z7L7) was tested, and the log2 fold change was inactive: -0.172. YWHAQ (UniProt P27348) was tested, and the log2 fold change was inactive: 0.585. With YAE1 (UniProt Q9NRH1) the log2 fold change was inactive: 0.057. In the case of ZC3HC1 (UniProt Q86WB0), the log2 fold change is reported as active: -0.402. ZC3H18 (UniProt Q86VM9) was tested, and the log2 fold change was inactive: -0.044.

Reference: the supplement of paper PMC10849652
